Our source for the Conversion ratio values is US20210128511A1, “PRODRUG COMPOSITIONS AND METHODS OF TREATMENT” (AQUESTIVE THERAPEUTICS, INC., priority 2019, published 2021).

A short description of this data set: Intramuscular study in minipig for prodrugs, epinephrine pharmacokinetic profile. The conditions noted are these: prodrug to epinephrine; actual dose 2 mg (0.1 mg/kg) IM. The format is in vivo, male Yucatan miniature swine. The procedure:
Yucatan minipigs (n=4 males per group) were weighed and weights were recorded. The morning of the study, the vascular access port (VAP) of each animal was checked for proper functioning. Minipigs with viable VAP were removed from the home cage and placed in a holding sling. The animals were fasted overnight prior to dose administration and for the duration of PK blood collections.
All the formulations were prepared fresh on the day of dosing and maintained on wet ice until dosing. The dose was injected in the rear hind limb. Prior to administering, the plunger of the syringe was aspirated and observed for any blood that may flow into the syringe. If no blood was observed, it was verified that the needle was in proper placement, and the test articles were administered.
At each specified time-point, 6 mL of whole blood was collected into blood collection tubes containing K2EDTA as the anticoagulant and sodium metabisulfite as stabilizer. Sodium metabisulfite was at a concentration of 8.9 mM, pH 3 (60 μL/6 mL of whole blood of the 890 mM stock solution). SigmaFast (600 μL of SigmaFast 1× solution to 6 mL of whole blood) was added immediately to the tubes as the enzyme arresting agent. The tubes were inverted several times for mixing upon addition of SigmaFast solution. […] The resulting plasma was obtained and stored at approximately […]. The analysis of epinephrine was done using LC-MS/MS method.
Applicants sought to identify epinephrine prodrugs with higher permeability and slower hydrolysis after intramuscular (IM) administrations. […] Yucatan minipigs were weighed and in the morning of the study, the vascular access port (VAP) of each animal was checked for proper functioning. Minipigs with viable VAP were removed from the home cage and placed in a holding sling. The animals were fasted overnight prior to dose administration and for the duration of PK blood collections.
The dose was injected in the rear hind limb. […] At each specified time-point, 6 mL of whole blood was collected into blood collection tubes containing anticoagulant and stabilizer. Protease inhibitor cocktail was added and the tubes were inverted several times for mixing. All blood samples were centrifuged and the resulting plasma was analyzed for epinephrine using LC-MS/MS method.
For `CNCC(OC(=O)C(C)(C)C)c1ccc(OC(=O)C(C)(C)C)c(OC(=O)C(C)(C)C)c1` (stereo not shown) [AQEP-01], the Conversion ratio is reported as 0.39.
In the case of `CNCC(O)c1ccc(OC(=O)N(C)C)c(OC(=O)N(C)C)c1` (stereo not shown) [AQEP-03], the Conversion ratio amounted to 0.51.
For `CNCC(O)c1ccc(OC(=O)c2ccccc2)c(OC(=O)c2ccccc2)c1` (stereo not shown) [AQEP-04], the Conversion ratio came to 0.43.
For the compound `CCC(C)(C)C(=O)Oc1ccc(C(O)CNC)cc1OC(=O)C(C)(C)CC` (stereo not shown) [AQEP-02], the Conversion ratio was determined as 0.44.
